Where a name gives a salt, the structure may show the parent alone. This is one part of the list. Single values are uncertain here, since repeats match poorly.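 The human kidney-derived cells carry a stably integrated construct of eight TEAD-binding elements driving luciferase, read by luminescence in a drug-repurposing library screen. A compound counts as a hit when its signal is more than five robust Z scores above the plate mean.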
Test system: HEK293A TEAD-LUC reporter
Test: TEAD-luciferase reporter activity (YAP activation), robust Z score vs plate; higher = stronger YAP/TEAD activation
Details: 24 h

SMILES	TEAD-luciferase reporter activity (compound concentration: 200 nM)	TEAD-luciferase reporter activity (compound concentration: 2 uM)	TEAD-luciferase reporter activity (compound concentration: 10 uM)
CC(C)=CCCC(C)=CCO	inactive: -0.17	inactive: -1.64	inactive: 2.49
CCCSc1ccccc1N1CCN(CCCCn2c(=O)[nH]c3ccc(C)cc3c2=O)CC1	inactive: 0.391	inactive: -1.42	inactive: 1.79
N#Cc1ccccc1OCC(O)CNCCNC(=O)Cc1ccc(O)cc1 (configuration not stated)	inactive: -0.164	inactive: -0.703	inactive: -0.948
CC[n+]1ccc(SCC2=C(C(=O)[O-])N3C(=O)[C@@H](NC(=O)/C(=N\O[C@@H](C)C(=O)O)c4csc(N)n4)[C@H]3SC2)cc1	inactive: -2.7	inactive: 0.636	inactive: 1.8
CCCS(=O)(=O)NC(=O)c1ccc(N(CC)Cc2cc(Br)ccc2OCC2CC2)nn1	inactive: -1.17	inactive: 0.299	inactive: 2.42
C[C@H]1NCc2cc(-c3ccc4c(=O)c(C(=O)O)cn(C5CC5)c4c3OC(F)F)ccc21	inactive: -1	inactive: 0.0685	inactive: 0.795
CCCSc1ccc2[nH]c(NC(=O)OC)nc2c1 [Albendazole]	inactive: -1.26		inactive: 2.72
CCCSc1ccc2[nH]c(NC(=O)OC)nc2c1 [albendazole]		inactive: -0.146	
CCC[C@]1(CC(=O)O)OCCc2c1[nH]c1c(C)ccc(C#N)c21	inactive: -0.562	inactive: -0.487	inactive: -0.968
O=[N+]([O-])c1nccn1CC(O)CO (configuration not stated)	inactive: -2.15	inactive: -1.79	inactive: 4.4
CC(=O)Nc1c(I)c(NC(C)=O)c(I)c(C(=O)O)c1I [Diatrizoate]	inactive: -1.13	inactive: -1.21	inactive: 1.49
O=C(O)CCCc1cc2cc(Cl)ccc2n1S(=O)(=O)c1ccc2ncsc2c1	inactive: 0.849	inactive: 1.46	inactive: -0.232
COc1cc2c(cc1S(=O)(=O)c1ccc(OCc3ccc(Cl)cc3)cc1)CCN(C)CC2	inactive: 0.391	inactive: -0.236	active: 6.77
COc1cc(C2CC(O)c3ccc4ccccc4c3O2)cc(OC)c1OC (configuration not stated)	inactive: -0.591	inactive: -0.833	inactive: 1.78
CCCCNC(=O)c1ccc(Oc2ccc(CC(=O)O)cc2OC)c(NS(=O)(=O)c2ccc(Cl)cc2Cl)c1	inactive: -1.03	inactive: -0.2	inactive: -1.71
CS(=O)(=O)c1ccc([C@@H](CC2CCCC2)C(=O)Nc2ncc(SCC(=O)O)s2)cc1	inactive: -1.38	inactive: -0.653	inactive: -0.904
CCN1CCCC1CNC(=O)c1cc(S(=O)(=O)CC)c(N)cc1OC (configuration not stated) [Amisulpride]	inactive: 2.8		inactive: -2.02
CCN1CCCC1CNC(=O)c1cc(S(=O)(=O)CC)c(N)cc1OC (configuration not stated) [amisulpride]		inactive: 0.47	
CN(c1ccc(/C=C/C[C@H](NC(=O)c2ccccc2Cl)C(=O)O)cc1)c1ncccn1	inactive: -0.548	inactive: -0.363	inactive: -0.242

SMILES	TEAD-luciferase reporter activity (compound concentration: 200 nM)	TEAD-luciferase reporter activity (compound concentration: 2 uM)	TEAD-luciferase reporter activity (compound concentration: 10 uM)
CNC(=O)[C@@H](NC(=O)[C@@H](CC(=O)NO)CC(C)C)C(C)(C)C	inactive: -0.295	inactive: -0.958	inactive: -0.335
CCCN(CC1CC1)c1nc(C)nc(Nc2c(Cl)cc(C)c3nccnc23)c1C	inactive: -1.93	inactive: 0.73	inactive: -1.39
COc1nc(C)cnc1NS(=O)(=O)c1cccnc1-c1ccc(-c2nnco2)cc1	inactive: 2.16		inactive: -0.845
COc1nc(C)cnc1NS(=O)(=O)c1cccnc1-c1ccc(-c2nnco2)cc1 [Zibotentan]		inactive: 0.718	
C=C(N)N1CC[C@H](SC2=C(C(=O)O)N3C(=O)[C@H]([C@@H](C)O)[C@H]3C2)C1	inactive: 0.315	inactive: -2.2	inactive: 0.123
CC(C)[C@H](C(=O)Nc1ccc(C(=O)NO)cc1)c1ccccc1	active: 7.38	active: 21.4	active: 19.4
COC(=O)Nc1nc2ccc(C(=O)c3cccs3)cc2[nH]1 [nocodazole]	inactive: 1.74	active: 11.9	inactive: 4.11
CN(C)CCCN1c2ccccc2C(C)(C)c2ccccc21	inactive: -1.28	inactive: -1.17	inactive: 1.95
O=C1C(Cl)=C(NCCN2CCOCC2)C(=O)c2ncccc21	inactive: -2.64	inactive: 0.445	inactive: 1.96
O=C(NC1CCN(Cc2cccc(-c3ccc(F)c(F)c3)c2)CC1)c1ccc(F)cc1	inactive: -0.734		inactive: 0.946
O=C(Cc1ccccc1)NCC(=O)Nc1ccc(C2S/C(=N\c3cccc(F)c3)N(Cc3ccco3)C2=O)cc1 (configuration not stated)	inactive: 1.8	inactive: -1.04	inactive: 1.06
CC(C)OC(=O)OCOP(=O)(CO[C@H](C)Cn1cnc2c(N)ncnc21)OCOC(=O)OC(C)C [tenofovir disoproxil fumarate]	inactive: -1.16	inactive: 2.27	inactive: -0.607
CCCCC1(CCCC)CCc2c(OCc3ccc4ccccc4n3)cccc2C1O (configuration not stated)	inactive: -0.756	inactive: 0.722	inactive: 1.93
Cc1cn([C@H]2C[C@H](N=[N+]=[N-])[C@@H](CO)O2)c(=O)[nH]c1=O	inactive: -0.82		inactive: 0.113
Cc1cn([C@H]2C[C@H](N=[N+]=[N-])[C@@H](CO)O2)c(=O)[nH]c1=O [AZT, Supratek]		inactive: -1.46	
Cc1c(Cc2cccnc2S(=O)(=O)c2ccc(F)cc2)c2cc(F)ccc2n1CC(=O)O	inactive: -0.3	inactive: -0.625	inactive: 0.24
OO [hydrogen peroxide]	inactive: 0.377	inactive: 0.352	inactive: 0.0104
COc1ccc([C@H](CC(=O)O)N2CCN(CCCc3ccc4c(n3)NCCC4)C2=O)cn1	inactive: -1.01	inactive: -1.67	inactive: -1.69
CC(C)N(CC(=O)N1CCOCC1)Cc1c(Cl)cccc1NC(=O)c1ccccc1	inactive: -0.525	inactive: -0.497	inactive: 2.22

Some of the entries so far, as a markdown table:

| SMILES | TEAD-luciferase reporter activity (compound concentration: 200 nM) | TEAD-luciferase reporter activity (compound concentration: 2 uM) | TEAD-luciferase reporter activity (compound concentration: 10 uM) |
| --- | --- | --- | --- |
| O=C1C(Cl)=C(NCCN2CCOCC2)C(=O)c2ncccc21 | inactive: -2.64 | inactive: 0.445 | inactive: 1.96 |
| O=C(NC1CCN(Cc2cccc(-c3ccc(F)c(F)c3)c2)CC1)c1ccc(F)cc1 | inactive: -0.734 |  | inactive: 0.946 |
| O=C(Cc1ccccc1)NCC(=O)Nc1ccc(C2S/C(=N\c3cccc(F)c3)N(Cc3ccco3)C2=O)cc1 (configuration not stated) | inactive: 1.8 | inactive: -1.04 | inactive: 1.06 |

More entries:

SMILES	TEAD-luciferase reporter activity (compound concentration: 200 nM)	TEAD-luciferase reporter activity (compound concentration: 2 uM)	TEAD-luciferase reporter activity (compound concentration: 10 uM)
Nc1nc(/C(=N/OCc2cnc[nH]2)C(=O)N[C@@H]2C(=O)N3C(C(=O)O)=C(C[n+]4ccccc4)CS[C@H]23)cs1 [Pharmaprojects No. 2479]	inactive: 0.256	inactive: -0.606	inactive: -0.954
CC(C)(NCCCn1ccnc1)c1ccc(Cl)cc1	inactive: -1.82	inactive: -0.836	inactive: -0.266
Cn1cnc(-c2cc3nccc(Oc4ccc(NC(=S)NC(=O)Cc5ccccc5)cc4F)c3s2)c1	inactive: 2.24	inactive: -2.09	inactive: -0.4
CN1CCN(C[C@@H]2C(=O)Nc3ccccc3S[C@@H]2c2ccccc2)CC1	inactive: 1.19	inactive: 0.696	inactive: 1.5
CO[C@@H]1C[C@H](C(=O)Nc2ccc(-n3ccccc3=O)cc2F)N(C(=O)Nc2ccc(Cl)cc2)C1	inactive: -1.27	inactive: -0.191	inactive: 0.192
C#C[C@]1(O)CC[C@H]2[C@@H]3CCC4=CCCC[C@@H]4[C@H]3C(=C)C[C@@]21CC [Desogestrel]	inactive: 0.0709	inactive: -0.851	inactive: -0.205
CC1=C(c2ccc(O)cc2)C(c2ccc(OCCN3CCCCC3)cc2)Oc2cc(O)ccc21 (configuration not stated)	inactive: 0.53	inactive: -0.494	inactive: -1.23
CC(C)CN(C(=O)c1cccc(Cl)c1Cl)[C@H]1CCNC1	inactive: -1.5	inactive: -0.228	inactive: 1.06
CCC(C(=O)O)c1ccc(-c2ccccc2)cc1 (configuration not stated)	inactive: -0.24	inactive: -0.39	inactive: 0.463
O=c1c(N2CCCC2)c(O)c2cccnc2n1-c1ccccc1	inactive: 1.96	inactive: -1.18	inactive: 3.02
Cc1cc(NS(=O)(=O)c2ccc(N)cc2)no1	inactive: -0.487	inactive: 0.0987	inactive: -0.739
CCCn1c(=O)n(C2CC2)c(=O)c2[nH]c(-c3ccc(N(CC)C(=O)c4cccnc4)nc3)nc21	inactive: -0.423	inactive: 2.17	inactive: -0.613
OC(CCl)CN1CC[N+]2(CC1)CC[N+]1(CCN(CC(O)CCl)CC1)CC2 (configuration not stated)	inactive: -0.99	inactive: -1.34	inactive: -0.319
CC(C)CNC1CCS(=O)(=O)c2sc(S(N)(=O)=O)cc21 (configuration not stated) [Sezolamide hydrochloride]	inactive: -0.227	inactive: 0.675	inactive: 2.04
CC(C(=O)OCCCCO[N+](=O)[O-])c1cccc(C(=O)c2ccccc2)c1 (configuration not stated)	inactive: -2.17	inactive: 1.99	inactive: 0.543
COC1=C(c2ccccc2)C(CC(=O)O)OC1=O (configuration not stated)	inactive: -1.48	inactive: 0.332	inactive: 1.46
CC(C)=CCC/C(C)=C/CC/C(C)=C/CC/C(C)=C/CC/C(C)=C/CC/C(C)=C/CC/C(C)=C/CC1=C(C)C(=O)c2ccccc2C1=O [Menaqui   -7]		inactive: -0.494	
CC(C)=CCC/C(C)=C/CC/C(C)=C/CC/C(C)=C/CC/C(C)=C/CC/C(C)=C/CC/C(C)=C/CC1=C(C)C(=O)c2ccccc2C1=O [Menaqui-7]	inactive: 0.587		
CC(C)=CCC/C(C)=C/CC/C(C)=C/CC/C(C)=C/CC/C(C)=C/CC/C(C)=C/CC/C(C)=C/CC1=C(C)C(=O)c2ccccc2C1=O [Menaqui  -7]			inactive: 2.51
